Assay [1] addresses T1, IFT139 (from ^ZZ-SNAPIFT139, TEV-cleaved) (human) (UniProt Q7Z4L5).
T1 sequence: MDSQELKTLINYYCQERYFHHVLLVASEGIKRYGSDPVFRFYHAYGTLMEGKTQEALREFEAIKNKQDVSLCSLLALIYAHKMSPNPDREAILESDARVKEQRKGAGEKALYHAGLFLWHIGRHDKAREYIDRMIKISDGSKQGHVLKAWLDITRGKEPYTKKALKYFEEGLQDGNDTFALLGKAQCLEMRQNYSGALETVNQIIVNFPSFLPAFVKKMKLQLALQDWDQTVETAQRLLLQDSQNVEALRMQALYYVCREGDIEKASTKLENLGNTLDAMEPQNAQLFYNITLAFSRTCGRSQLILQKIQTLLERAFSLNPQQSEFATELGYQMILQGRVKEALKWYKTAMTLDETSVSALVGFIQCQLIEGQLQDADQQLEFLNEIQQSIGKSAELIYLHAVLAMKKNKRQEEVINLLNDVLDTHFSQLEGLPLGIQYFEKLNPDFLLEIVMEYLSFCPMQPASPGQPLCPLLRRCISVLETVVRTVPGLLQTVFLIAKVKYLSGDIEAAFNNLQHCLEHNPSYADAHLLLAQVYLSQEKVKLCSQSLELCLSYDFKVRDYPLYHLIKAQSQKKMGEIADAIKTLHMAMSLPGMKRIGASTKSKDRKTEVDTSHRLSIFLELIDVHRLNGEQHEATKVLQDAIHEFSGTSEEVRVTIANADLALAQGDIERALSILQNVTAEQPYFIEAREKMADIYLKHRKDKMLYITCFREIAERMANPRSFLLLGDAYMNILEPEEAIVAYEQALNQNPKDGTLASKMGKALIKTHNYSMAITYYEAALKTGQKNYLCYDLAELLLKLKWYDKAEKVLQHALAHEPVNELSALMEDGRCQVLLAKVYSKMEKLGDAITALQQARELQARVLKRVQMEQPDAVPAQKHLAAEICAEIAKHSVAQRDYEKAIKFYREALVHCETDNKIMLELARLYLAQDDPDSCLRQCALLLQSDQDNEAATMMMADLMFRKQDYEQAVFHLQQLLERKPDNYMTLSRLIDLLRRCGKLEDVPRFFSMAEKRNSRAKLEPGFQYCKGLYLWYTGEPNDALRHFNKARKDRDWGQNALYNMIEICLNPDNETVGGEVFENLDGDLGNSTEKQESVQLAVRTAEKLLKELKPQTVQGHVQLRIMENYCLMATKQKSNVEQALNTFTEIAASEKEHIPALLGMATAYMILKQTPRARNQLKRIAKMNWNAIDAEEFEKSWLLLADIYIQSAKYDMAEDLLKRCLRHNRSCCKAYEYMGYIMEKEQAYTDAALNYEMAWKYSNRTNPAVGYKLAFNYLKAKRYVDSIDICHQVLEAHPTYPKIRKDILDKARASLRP
Nature of the assay: cryo-EM structure.

Assay [2] has as its target T2, IFT121 (from ^ZZIFT121, TEV-cleaved) (human) (UniProt Q9P2L0).
T2 sequence: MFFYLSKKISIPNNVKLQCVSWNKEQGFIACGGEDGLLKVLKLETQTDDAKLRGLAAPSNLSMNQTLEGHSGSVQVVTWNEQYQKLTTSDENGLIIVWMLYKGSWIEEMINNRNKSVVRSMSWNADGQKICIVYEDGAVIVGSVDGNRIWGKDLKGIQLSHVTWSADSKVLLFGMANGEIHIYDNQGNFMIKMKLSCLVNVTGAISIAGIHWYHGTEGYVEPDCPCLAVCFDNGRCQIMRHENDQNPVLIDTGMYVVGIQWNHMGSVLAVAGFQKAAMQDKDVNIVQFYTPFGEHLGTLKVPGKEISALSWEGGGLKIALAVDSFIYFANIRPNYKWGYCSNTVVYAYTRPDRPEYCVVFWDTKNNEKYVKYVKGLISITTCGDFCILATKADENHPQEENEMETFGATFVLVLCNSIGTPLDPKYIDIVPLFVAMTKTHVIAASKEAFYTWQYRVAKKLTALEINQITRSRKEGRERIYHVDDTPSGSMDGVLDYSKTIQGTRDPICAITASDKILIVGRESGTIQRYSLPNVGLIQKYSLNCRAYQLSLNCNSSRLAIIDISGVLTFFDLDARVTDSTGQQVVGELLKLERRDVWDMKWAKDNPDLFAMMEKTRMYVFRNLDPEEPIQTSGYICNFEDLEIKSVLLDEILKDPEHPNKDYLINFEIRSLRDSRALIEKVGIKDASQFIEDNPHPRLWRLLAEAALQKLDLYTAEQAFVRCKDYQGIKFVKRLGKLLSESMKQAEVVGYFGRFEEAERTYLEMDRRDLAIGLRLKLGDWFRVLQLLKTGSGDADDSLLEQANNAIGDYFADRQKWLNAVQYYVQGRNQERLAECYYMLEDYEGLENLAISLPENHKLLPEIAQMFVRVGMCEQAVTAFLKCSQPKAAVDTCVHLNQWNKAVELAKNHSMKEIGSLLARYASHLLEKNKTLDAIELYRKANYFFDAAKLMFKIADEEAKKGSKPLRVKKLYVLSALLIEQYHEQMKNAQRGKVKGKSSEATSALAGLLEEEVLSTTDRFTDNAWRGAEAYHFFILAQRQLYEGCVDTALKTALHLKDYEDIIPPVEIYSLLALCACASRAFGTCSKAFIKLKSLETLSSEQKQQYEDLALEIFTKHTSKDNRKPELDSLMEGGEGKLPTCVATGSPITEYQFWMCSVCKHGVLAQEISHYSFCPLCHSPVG
Nature of the assay: cryo-EM structure.

For assay [3], the target named is human IFT-A complex, wild type (IFT144·IFT140·IFT122·IFT121·IFT43·IFT139) (human) (UniProt Q8NEZ3+Q96RY7+Q9HBG6+Q9P2L0+Q96FT9+Q7Z4L5). Nature of the assay: SEC. A general note: Size exclusion chromatography separates by hydrodynamic size, large species first.
In assay [4] the target is T3, IFT122 (untagged) (human) (UniProt Q9HBG6).
T3 sequence: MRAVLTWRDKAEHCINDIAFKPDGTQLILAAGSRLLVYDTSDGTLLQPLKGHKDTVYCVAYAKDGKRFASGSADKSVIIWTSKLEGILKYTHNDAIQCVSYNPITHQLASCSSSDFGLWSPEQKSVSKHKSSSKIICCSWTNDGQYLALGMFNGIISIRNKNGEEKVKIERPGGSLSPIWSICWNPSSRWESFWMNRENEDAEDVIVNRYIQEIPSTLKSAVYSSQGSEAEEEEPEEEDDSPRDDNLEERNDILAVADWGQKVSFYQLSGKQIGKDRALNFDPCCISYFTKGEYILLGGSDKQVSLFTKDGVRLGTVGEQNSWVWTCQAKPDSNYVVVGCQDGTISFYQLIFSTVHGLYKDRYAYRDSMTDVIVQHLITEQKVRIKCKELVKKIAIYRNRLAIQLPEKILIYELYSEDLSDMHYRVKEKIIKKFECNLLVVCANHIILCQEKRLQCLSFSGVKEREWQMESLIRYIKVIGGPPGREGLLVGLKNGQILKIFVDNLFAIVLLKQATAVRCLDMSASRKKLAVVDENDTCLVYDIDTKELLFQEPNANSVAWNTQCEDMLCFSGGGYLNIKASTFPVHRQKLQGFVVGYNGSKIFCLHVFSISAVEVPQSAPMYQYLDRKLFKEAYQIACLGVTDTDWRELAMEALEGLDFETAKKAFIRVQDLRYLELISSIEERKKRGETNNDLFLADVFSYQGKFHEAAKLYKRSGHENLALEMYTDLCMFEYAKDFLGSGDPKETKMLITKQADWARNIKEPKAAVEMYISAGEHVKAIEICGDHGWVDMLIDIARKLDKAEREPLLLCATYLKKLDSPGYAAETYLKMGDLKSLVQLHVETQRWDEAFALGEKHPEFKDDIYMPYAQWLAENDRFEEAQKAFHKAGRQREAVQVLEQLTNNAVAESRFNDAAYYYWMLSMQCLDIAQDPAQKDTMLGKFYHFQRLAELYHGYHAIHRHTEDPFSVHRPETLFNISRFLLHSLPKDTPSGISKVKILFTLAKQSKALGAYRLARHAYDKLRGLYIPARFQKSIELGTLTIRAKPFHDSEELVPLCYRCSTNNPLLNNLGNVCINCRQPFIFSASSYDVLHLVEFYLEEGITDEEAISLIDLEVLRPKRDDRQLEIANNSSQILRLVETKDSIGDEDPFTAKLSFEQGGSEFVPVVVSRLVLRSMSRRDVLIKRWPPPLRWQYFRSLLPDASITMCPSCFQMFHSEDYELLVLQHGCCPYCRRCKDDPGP
Nature of the assay: cryo-EM structure.

The results in this text go back to doi:10.1101/2022.08.09.503213 (bioRxiv, 2022).

These are yes or no findings as the source states them, for the method shown. Some binding calls cover weakened binding; strength is not graded here. For some assays here: Where a sequence is shown, tags or fusion partners need not be part of it.

B1: IFT43 (untagged, or from ^ZZIFT43 after TEV cleavage) (protein, UniProt Q96FT9 1-208)
chain: MEDLLDLDEELRYSLATSRAKMGRRAQQESAQAENHLNGKNSSLTLTGETSSAKLPRCRQGGWAGDSVKASKFRRKASEEIEDFRLRPQSLNGSDYGGDIPIIPDLEEVQEEDFVLQVAAPPSIQIKRVMTYRDLDNDLMKYSAIQTLDGEIDLKLLTKVLAPEHEVREDDVGWDWDHLFTEVSSEVLTEWDPLQTEKEDPAGQARHT
As to B1, the binding result in assay [1] and in assay [2] was “binds” each time.

B2: TULP3, full-length human (from TULP3^ZZ, TEV-cleaved) (protein, UniProt O75386 1-442)
chain: MEASRCRLSPSGDSVFHEEMMKMRQAKLDYQRLLLEKRQRKKRLEPFMVQPNPEARLRRAKPRASDEQTPLVNCHTPHSNVILHGIDGPAAVLKPDEVHAPSVSSSVVEEDAENTVDTASKPGLQERLQKHDISESVNFDEETDGISQSACLERPNSASSQNSTDTGTSGSATAAQPADNLLGDIDDLEDFVYSPAPQGVTVRCRIIRDKRGMDRGLFPTYYMYLEKEENQKIFLLAARKRKKSKTANYLISIDPVDLSREGESYVGKLRSNLMGTKFTVYDRGICPMKGRGLVGAAHTRQELAAISYETNVLGFKGPRKMSVIIPGMTLNHKQIPYQPQNNHDSLLSRWQNRTMENLVELHNKAPVWNSDTQSYVLNFRGRVTQASVKNFQIVHKNDPDYIVMQFGRVADDVFTLDYNYPLCAVQAFGIGLSSFDSKLACE
As to B2, the binding result in assay [3] is “binds”.

B3: IFT121 (from ^ZZIFT121, TEV-cleaved) (protein, UniProt Q9P2L0 1-1181)
chain: MFFYLSKKISIPNNVKLQCVSWNKEQGFIACGGEDGLLKVLKLETQTDDAKLRGLAAPSNLSMNQTLEGHSGSVQVVTWNEQYQKLTTSDENGLIIVWMLYKGSWIEEMINNRNKSVVRSMSWNADGQKICIVYEDGAVIVGSVDGNRIWGKDLKGIQLSHVTWSADSKVLLFGMANGEIHIYDNQGNFMIKMKLSCLVNVTGAISIAGIHWYHGTEGYVEPDCPCLAVCFDNGRCQIMRHENDQNPVLIDTGMYVVGIQWNHMGSVLAVAGFQKAAMQDKDVNIVQFYTPFGEHLGTLKVPGKEISALSWEGGGLKIALAVDSFIYFANIRPNYKWGYCSNTVVYAYTRPDRPEYCVVFWDTKNNEKYVKYVKGLISITTCGDFCILATKADENHPQEENEMETFGATFVLVLCNSIGTPLDPKYIDIVPLFVAMTKTHVIAASKEAFYTWQYRVAKKLTALEINQITRSRKEGRERIYHVDDTPSGSMDGVLDYSKTIQGTRDPICAITASDKILIVGRESGTIQRYSLPNVGLIQKYSLNCRAYQLSLNCNSSRLAIIDISGVLTFFDLDARVTDSTGQQVVGELLKLERRDVWDMKWAKDNPDLFAMMEKTRMYVFRNLDPEEPIQTSGYICNFEDLEIKSVLLDEILKDPEHPNKDYLINFEIRSLRDSRALIEKVGIKDASQFIEDNPHPRLWRLLAEAALQKLDLYTAEQAFVRCKDYQGIKFVKRLGKLLSESMKQAEVVGYFGRFEEAERTYLEMDRRDLAIGLRLKLGDWFRVLQLLKTGSGDADDSLLEQANNAIGDYFADRQKWLNAVQYYVQGRNQERLAECYYMLEDYEGLENLAISLPENHKLLPEIAQMFVRVGMCEQAVTAFLKCSQPKAAVDTCVHLNQWNKAVELAKNHSMKEIGSLLARYASHLLEKNKTLDAIELYRKANYFFDAAKLMFKIADEEAKKGSKPLRVKKLYVLSALLIEQYHEQMKNAQRGKVKGKSSEATSALAGLLEEEVLSTTDRFTDNAWRGAEAYHFFILAQRQLYEGCVDTALKTALHLKDYEDIIPPVEIYSLLALCACASRAFGTCSKAFIKLKSLETLSSEQKQQYEDLALEIFTKHTSKDNRKPELDSLMEGGEGKLPTCVATGSPITEYQFWMCSVCKHGVLAQEISHYSFCPLCHSPVG
In the case of B3, the binding entry in assay [1] and in assay [4] was “binds” in each case.
